In the supplement of paper PMC10849652:
The other results are listed elsewhere or left out. Residues, ends and D or L forms follow the SMILES beside them. *: point of attachment. Cbz = O=C(OCc1ccccc1)*

Chains of the proteins cited; added tags and fusions are not shown. Lines headed by an entry give the natural chain unless they say otherwise; changes in a name come on top.
UniProt Q15366, whole entry, looked up: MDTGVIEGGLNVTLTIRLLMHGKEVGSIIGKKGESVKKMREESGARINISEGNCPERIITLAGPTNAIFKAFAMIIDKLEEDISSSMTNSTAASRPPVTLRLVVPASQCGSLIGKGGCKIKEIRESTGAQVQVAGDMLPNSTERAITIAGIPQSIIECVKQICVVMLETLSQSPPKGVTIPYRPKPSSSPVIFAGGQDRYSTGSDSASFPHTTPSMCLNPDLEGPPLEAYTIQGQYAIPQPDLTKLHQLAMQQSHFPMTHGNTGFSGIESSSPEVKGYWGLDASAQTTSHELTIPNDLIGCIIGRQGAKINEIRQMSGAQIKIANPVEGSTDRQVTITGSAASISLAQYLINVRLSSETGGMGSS
UniProt Q16342: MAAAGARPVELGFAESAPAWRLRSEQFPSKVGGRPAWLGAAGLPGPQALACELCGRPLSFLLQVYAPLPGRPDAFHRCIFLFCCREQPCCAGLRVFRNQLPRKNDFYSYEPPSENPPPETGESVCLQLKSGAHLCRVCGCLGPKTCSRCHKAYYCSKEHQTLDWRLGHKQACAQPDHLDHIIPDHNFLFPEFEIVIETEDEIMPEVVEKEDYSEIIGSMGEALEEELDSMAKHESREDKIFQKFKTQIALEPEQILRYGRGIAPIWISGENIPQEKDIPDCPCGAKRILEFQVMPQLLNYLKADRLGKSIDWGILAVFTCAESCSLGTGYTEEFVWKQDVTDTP
UniProt Q13370: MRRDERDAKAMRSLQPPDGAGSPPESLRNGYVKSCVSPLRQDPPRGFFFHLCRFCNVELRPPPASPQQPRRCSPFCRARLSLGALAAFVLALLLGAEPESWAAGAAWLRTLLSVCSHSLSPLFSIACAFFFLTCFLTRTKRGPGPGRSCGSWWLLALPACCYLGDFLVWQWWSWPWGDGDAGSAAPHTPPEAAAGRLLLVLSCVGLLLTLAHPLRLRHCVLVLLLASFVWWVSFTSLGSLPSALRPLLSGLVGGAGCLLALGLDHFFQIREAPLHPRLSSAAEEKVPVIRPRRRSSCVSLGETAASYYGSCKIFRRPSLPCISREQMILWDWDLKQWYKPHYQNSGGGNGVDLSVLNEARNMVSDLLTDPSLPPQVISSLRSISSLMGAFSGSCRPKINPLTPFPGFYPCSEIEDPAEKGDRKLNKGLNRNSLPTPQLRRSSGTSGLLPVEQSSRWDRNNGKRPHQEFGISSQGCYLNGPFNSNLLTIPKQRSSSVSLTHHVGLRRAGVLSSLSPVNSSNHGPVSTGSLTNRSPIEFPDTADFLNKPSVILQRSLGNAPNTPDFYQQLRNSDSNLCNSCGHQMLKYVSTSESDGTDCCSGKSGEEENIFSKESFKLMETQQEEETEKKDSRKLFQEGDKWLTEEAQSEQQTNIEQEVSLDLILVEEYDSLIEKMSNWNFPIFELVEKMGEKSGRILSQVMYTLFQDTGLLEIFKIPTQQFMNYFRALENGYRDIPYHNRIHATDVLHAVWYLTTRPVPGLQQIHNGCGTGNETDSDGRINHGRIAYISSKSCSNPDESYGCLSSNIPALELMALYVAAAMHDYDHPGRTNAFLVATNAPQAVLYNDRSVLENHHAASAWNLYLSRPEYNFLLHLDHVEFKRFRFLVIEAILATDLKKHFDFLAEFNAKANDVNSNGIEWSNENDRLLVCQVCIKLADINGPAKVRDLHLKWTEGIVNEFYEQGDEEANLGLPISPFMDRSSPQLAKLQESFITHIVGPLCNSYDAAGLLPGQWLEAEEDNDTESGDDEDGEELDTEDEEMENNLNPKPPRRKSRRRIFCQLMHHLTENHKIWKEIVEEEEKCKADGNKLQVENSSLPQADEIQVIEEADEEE
UniProt Q9Y5B6: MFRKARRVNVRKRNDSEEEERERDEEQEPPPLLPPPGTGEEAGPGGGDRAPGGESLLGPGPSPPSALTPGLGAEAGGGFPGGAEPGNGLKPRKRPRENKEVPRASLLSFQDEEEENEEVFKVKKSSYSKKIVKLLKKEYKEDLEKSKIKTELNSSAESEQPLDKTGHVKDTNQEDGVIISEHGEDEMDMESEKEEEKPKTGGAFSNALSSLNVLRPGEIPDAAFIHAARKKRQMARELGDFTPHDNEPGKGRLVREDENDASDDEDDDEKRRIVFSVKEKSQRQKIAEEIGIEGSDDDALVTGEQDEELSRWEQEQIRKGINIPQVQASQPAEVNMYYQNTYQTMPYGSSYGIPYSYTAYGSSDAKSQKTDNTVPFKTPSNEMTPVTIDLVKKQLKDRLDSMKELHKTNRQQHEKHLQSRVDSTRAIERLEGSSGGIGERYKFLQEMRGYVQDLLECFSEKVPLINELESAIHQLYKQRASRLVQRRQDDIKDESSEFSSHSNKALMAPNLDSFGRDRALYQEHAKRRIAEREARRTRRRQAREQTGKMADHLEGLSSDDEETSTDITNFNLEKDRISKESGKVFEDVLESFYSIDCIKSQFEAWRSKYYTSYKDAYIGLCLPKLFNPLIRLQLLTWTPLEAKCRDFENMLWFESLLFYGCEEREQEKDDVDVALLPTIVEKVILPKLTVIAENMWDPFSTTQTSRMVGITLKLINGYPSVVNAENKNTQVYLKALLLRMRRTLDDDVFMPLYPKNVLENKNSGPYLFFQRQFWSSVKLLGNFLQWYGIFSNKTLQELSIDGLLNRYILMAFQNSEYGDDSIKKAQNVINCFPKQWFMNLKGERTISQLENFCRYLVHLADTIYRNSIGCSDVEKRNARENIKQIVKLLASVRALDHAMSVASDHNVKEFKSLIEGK
UniProt Q8N7B6: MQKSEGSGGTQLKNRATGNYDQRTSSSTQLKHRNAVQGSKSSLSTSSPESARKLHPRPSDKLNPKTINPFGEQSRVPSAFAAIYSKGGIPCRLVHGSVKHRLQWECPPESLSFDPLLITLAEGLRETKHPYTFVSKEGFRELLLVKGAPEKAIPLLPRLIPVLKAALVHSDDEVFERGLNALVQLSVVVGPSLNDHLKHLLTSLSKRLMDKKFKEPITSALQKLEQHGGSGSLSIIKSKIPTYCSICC
UniProt Q16549: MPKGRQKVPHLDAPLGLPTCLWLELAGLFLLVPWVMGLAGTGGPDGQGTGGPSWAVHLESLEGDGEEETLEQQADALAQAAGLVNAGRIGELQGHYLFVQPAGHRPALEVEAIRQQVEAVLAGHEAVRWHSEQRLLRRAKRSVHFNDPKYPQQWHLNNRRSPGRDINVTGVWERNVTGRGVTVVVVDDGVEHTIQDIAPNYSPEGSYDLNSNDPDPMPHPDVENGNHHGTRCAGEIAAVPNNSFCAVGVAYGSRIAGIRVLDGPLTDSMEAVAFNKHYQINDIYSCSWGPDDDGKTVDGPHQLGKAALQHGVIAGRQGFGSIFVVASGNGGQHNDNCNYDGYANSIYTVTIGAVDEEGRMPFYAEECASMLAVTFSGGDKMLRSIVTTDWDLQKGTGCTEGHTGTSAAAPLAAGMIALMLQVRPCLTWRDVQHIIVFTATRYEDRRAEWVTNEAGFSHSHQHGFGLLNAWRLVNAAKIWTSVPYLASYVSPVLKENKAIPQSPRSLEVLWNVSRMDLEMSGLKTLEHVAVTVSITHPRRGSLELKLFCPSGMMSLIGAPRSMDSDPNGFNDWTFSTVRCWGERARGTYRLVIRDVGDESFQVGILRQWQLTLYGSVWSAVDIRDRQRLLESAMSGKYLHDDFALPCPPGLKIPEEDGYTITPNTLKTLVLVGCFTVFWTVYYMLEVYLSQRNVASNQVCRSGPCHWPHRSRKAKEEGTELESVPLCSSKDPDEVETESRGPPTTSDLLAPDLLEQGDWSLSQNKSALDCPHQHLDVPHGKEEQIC
UniProt O75781: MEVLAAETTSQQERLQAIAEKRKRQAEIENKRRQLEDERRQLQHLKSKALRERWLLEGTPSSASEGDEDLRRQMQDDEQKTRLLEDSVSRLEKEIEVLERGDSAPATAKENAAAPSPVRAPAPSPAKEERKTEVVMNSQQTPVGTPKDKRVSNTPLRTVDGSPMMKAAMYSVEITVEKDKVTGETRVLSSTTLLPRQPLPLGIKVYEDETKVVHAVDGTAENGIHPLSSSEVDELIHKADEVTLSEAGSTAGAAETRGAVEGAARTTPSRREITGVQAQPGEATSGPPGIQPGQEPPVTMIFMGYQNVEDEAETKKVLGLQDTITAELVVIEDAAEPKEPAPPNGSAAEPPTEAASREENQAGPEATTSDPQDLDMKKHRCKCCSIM
UniProt O60829: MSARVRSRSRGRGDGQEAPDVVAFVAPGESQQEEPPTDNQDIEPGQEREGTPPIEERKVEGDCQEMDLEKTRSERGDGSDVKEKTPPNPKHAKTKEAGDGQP
UniProt Q9H999: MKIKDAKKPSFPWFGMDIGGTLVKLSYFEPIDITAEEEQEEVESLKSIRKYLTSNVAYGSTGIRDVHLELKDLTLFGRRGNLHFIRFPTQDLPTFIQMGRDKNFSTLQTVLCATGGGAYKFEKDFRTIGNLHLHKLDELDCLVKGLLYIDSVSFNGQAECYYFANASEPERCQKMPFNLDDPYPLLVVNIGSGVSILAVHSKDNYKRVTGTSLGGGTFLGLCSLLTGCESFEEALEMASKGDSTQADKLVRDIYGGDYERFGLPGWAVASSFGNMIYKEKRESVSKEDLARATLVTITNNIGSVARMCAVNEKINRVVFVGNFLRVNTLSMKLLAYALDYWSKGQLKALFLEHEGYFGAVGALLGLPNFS
UniProt P29122: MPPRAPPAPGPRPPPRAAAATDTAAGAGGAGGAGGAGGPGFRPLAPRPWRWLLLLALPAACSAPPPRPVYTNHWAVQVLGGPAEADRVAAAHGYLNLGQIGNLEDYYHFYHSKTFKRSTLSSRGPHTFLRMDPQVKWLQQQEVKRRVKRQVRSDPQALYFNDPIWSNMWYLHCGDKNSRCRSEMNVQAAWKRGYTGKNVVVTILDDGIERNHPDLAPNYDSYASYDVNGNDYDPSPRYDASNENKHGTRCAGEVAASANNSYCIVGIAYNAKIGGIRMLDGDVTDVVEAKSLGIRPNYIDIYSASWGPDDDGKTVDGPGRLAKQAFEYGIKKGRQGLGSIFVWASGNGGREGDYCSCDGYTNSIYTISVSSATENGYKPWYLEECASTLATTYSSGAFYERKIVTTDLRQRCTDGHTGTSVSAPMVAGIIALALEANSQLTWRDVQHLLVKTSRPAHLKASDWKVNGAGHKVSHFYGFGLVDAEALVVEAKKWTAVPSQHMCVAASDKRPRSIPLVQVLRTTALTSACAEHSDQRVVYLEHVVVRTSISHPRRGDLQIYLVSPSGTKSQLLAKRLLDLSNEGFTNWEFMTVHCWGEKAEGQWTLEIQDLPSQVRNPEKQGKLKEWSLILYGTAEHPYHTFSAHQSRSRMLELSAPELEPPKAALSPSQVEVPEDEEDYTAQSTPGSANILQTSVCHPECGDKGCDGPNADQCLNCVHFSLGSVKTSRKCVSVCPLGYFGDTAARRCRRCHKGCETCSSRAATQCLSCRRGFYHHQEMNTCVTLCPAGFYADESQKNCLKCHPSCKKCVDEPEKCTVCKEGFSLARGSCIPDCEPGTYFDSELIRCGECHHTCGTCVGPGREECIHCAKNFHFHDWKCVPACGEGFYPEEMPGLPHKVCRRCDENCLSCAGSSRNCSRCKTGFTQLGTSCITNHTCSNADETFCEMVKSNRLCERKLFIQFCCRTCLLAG
UniProt Q9UBM1: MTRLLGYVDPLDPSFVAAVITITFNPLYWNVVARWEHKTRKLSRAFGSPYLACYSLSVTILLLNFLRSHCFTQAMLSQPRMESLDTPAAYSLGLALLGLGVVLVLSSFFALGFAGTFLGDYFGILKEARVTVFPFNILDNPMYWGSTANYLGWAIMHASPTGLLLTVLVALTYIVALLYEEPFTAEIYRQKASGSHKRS
UniProt Q9P0J1: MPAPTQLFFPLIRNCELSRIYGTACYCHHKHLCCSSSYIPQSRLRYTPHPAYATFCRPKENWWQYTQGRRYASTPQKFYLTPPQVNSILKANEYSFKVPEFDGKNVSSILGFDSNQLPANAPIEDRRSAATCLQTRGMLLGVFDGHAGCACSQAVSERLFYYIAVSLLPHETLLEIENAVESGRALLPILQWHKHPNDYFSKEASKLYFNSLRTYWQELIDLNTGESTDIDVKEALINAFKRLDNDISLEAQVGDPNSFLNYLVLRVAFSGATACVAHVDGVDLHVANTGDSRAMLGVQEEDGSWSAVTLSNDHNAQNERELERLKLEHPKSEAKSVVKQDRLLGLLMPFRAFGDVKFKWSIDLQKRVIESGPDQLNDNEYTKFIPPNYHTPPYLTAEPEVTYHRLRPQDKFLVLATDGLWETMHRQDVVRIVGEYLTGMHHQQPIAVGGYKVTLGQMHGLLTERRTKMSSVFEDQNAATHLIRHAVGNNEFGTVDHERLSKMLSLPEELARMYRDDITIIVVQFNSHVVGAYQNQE

Key:
Test in all cases: log2 fold change, soluble protein after heating vs DMSO (PISA); higher = thermal stabilisation; K562 cells, 10 uM, 30 min; active = over 0.2 and 3.5 SD of the protein, either way, in both replicates (recomputed)
IRAK-1-4 Inhibitor I = compound: C1COCCN1CCN2C3=CC=CC=C3N=C2NC(=O)C4=CC(=CC=C4)[N+](=O)[O-] [IRAK-1-4 Inhibitor I]
Procedure, shortened: (§1)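 K562 cells at 2×10^6 cells/mL were treated for 30 min with 10 μM compound, and aliquots were heated for 3 min over 48°C-58°C before pooling. Extraction used PBS with 0.5% NP-40 at 4°C, and soluble protein was the supernatant after 21,000xg for 90 min, measured by TMTpro 16plex LC-MS/MS with channel sums equalised. Thermal stability values, relative to control samples and from duplicates, are log2 fold changes.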

ibrutinib = compound: C=CC(=O)N1CCC[C@@H](n2nc(-c3ccc(Oc4ccccc4)cc3)c3c(N)ncnc32)C1 [ibrutinib]
Procedure, shortened: as §1

[1] = compound: CC(=O)c1cnc2ccc(-c3cc(Cl)c(O)c(Cl)c3)nc2c1N[C@H]1CC[C@H](CN(C)C)CC1
Procedure, shortened: as §1

ralimetinib = compound: CC(C)(C)Cn1c(N)nc2ccc(-c3[nH]c(C(C)(C)C)nc3-c3ccc(F)cc3)nc21 [ralimetinib]
Procedure, shortened: as §1

[2] = compound: CC(C)(O)CC(=O)NCCn1ccc2ncnc(Nc3ccc(Oc4cccc(C(F)(F)F)c4)c(Cl)c3)c21
Procedure, shortened: as §1

[3] = compound: CC(C)C1=C2N=C(C=C(N2N=C1)NCC3=CC=CC=C3)NCCCCCCN
Procedure, shortened: as §1

[4] = compound: CC(C)C[C@@H](C=O)NC(=O)[C@H](CC(C)C)NC(=O)[C@H](CC(C)C)NC(=O)OCc1ccccc1
Procedure, shortened: as §1

pinometostat = compound: CC(C)N(C[C@H]1O[C@@H](n2cnc3c(N)ncnc32)[C@H](O)[C@@H]1O)[C@H]1C[C@@H](CCc2nc3cc(C(C)(C)C)ccc3[nH]2)C1 [pinometostat]
Procedure, shortened: as §1

[5] = compound: CC1=C(C2=C(C=C1)C(=O)C3=CC=CC=C3N2CCCN)C
Procedure, shortened: as §1

[6] = compound: CC1=C(C=C(C=C1)NC(=O)C2=CC(=CC=C2)C(C)(C)C#N)NC3=CC4=C(C=C3)N=CN(C4=O)C
Procedure, shortened: as §1

[7] = compound: CC1=C(C=C(C=C1)NC(=O)C2=CC(=CC=C2)N(C)C)NC(=O)C3=CC=C(C=C3)O
Procedure, shortened: as §1

[8] = compound: CC1=CC=C(C=C1)SC2=C3C=C(SC3=CN=C2)C(=O)N
Procedure, shortened: as §1

[9] = compound: CC1=NC(=CC=C1)C2=C(N=C(N2)C(C)(C)C)C3=CC4=NC=CN=C4C=C3
Procedure, shortened: as §1

Nexturastat A = compound: CCCCN(Cc1ccc(C(=O)NO)cc1)C(=O)Nc1ccccc1 [Nexturastat A]
Procedure, shortened: as §1

vemurafenib = compound: CCCS(=O)(=O)Nc1ccc(F)c(C(=O)c2c[nH]c3ncc(-c4ccc(Cl)cc4)cc23)c1F [vemurafenib]
Procedure, shortened: as §1

[10] = compound: CCCS(=O)(=O)Nc1ccc(F)c(C(=O)c2c[nH]c3ncc(Cl)cc23)c1F
Procedure, shortened: as §1

[11] = compound: CCCc1cc(C)[nH]c(=O)c1CNC(=O)c1cc(-c2ccnc(N3CCN(C)CC3)c2)cc2c1cnn2C(C)C
Procedure, shortened: as §1

givinostat = compound: CCN(CC)Cc1ccc2cc(COC(=O)Nc3ccc(C(=O)NO)cc3)ccc2c1 [givinostat]
Procedure, shortened: as §1

barasertib = compound: CCN(CCCOc1ccc2c(Nc3cc(CC(=O)Nc4cccc(F)c4)[nH]n3)ncnc2c1)CCOP(=O)(O)O [barasertib]
Procedure, shortened: as §1

[12] = compound: CC1=C(C(CC(=O)N1)C2=CC=C(C=C2)C(F)(F)F)C(=O)NC3=C(C=C4C(=C3)C=NN4)F
Procedure, shortened: as §1

Measured: log2 fold change

PCBP2 isoform 3 (UniProt Q15366)
inactive: IRAK-1-4 Inhibitor I -0.065 | ibrutinib -0.048 | [1] -0.056 | ralimetinib 0.017 | [2] -0.067 | [3] -0.211 | [4] -0.029 | pinometostat -0.049 | [5] 0.025 | [6] 0.054 | [7] -0.024 | [8] 0.065 | [9] 0.149 | Nexturastat A -0.006 | vemurafenib 0.056 | [10] 0.129 | [11] -0.004 | givinostat 0.031 | barasertib 0.013

PAFAH1B1 (UniProt I3L3N5)
inactive: IRAK-1-4 Inhibitor I -0.055 | ibrutinib -0.173 | [1] 0.052 | pinometostat 0.024 | [8] -0.118 | [9] -0.122 | vemurafenib -0.177 | [10] -0.22 | [11] -0.233 | barasertib 0.062

PDPK1 (UniProt O15530)
inactive: IRAK-1-4 Inhibitor I 0.019 | ibrutinib -0.043 | ralimetinib -0.067 | [2] -0.087 | [3] -0.134 | [4] 0.015 | pinometostat 0.001 | [5] 0.027 | [6] -0.026 | [7] -0.055 | [8] 0.019 | [9] -0.007 | Nexturastat A -0.12 | vemurafenib 0.03 | [10] 0.003 | [11] -0.018 | givinostat 0.032 | barasertib 0.035
active: [1] -0.346

PDCD6IP (UniProt Q8WUM4)
inactive: IRAK-1-4 Inhibitor I -0.156 | ibrutinib -0.11 | [1] -0.039 | ralimetinib 0.046 | [2] -0.198 | [3] -0.327 | [4] 0.019 | pinometostat 0.084 | [5] 0.044 | [6] 0.032 | [7] -0.079 | [8] 0.077 | [9] 0.058 | Nexturastat A 0.066 | vemurafenib 0.106 | [10] 0.153 | [11] 0.119 | givinostat 0.183 | barasertib 0.135

PDS5A (UniProt Q29RF7)
inactive: IRAK-1-4 Inhibitor I -0.168 | ibrutinib -0.041 | [1] -0.063 | ralimetinib -0.012 | [2] -0.344 | [3] -0.61 | [4] 0.272 | pinometostat 0.045 | [5] -0.103 | [6] 0.093 | [7] -0.109 | [8] 0.012 | [9] 0.12 | Nexturastat A 0.057 | vemurafenib 0.143 | [10] 0.294 | [11] 0 | givinostat 0.208 | barasertib 0.275

PDCD2 (UniProt Q16342)
inactive: IRAK-1-4 Inhibitor I -0.166 | ibrutinib 0.139 | [2] 0.076 | pinometostat 0.303 | [5] -0.123 | [6] -0.083 | [9] -0.097 | Nexturastat A 0.188 | [11] 0.086 | barasertib 0.022

PDE3B (UniProt Q13370)
inactive: IRAK-1-4 Inhibitor I -0.13 | [2] -0.048 | pinometostat 0.168 | [9] 0.091 | Nexturastat A 0.413 | [11] -0.114

PAXBP1 (UniProt Q9Y5B6)
inactive: IRAK-1-4 Inhibitor I -0.547 | ibrutinib -0.124 | ralimetinib 0.079 | [3] -0.039 | [4] 0.06 | pinometostat 0.048 | [5] -0.465 | [7] 0.117 | [9] -0.076 | givinostat 0.117 | barasertib -0.058

PACRGL (UniProt Q8N7B6)
inactive: [6] 0.01

PCSK7 (UniProt Q16549)
inactive: [3] 0.036 | [8] 0.202 | [10] 0.187 | givinostat -0.052

PAF1 (UniProt Q8N7H5)
inactive: ralimetinib 0.096 | [2] -0.068 | [4] 0.217 | [7] 0 | Nexturastat A 0.081 | [11] 0.204

PCNX3 (UniProt Q9H6A9)
inactive: [3] -0.044 | [8] 0.04 | [10] -0.36 | givinostat 0.066

PALM (UniProt O75781)
inactive: IRAK-1-4 Inhibitor I -0.005 | [3] 0.038 | pinometostat -0.036 | [9] -0.001 | vemurafenib -0.063 | [11] 0.024 | givinostat -0.051

PARD3 (UniProt Q8TEW0)
inactive: [8] 0.095 | [10] -0.134

6 neighbouring entries out of the list so far, quoted:
PAXBP1 (UniProt Q9Y5B6)
inactive: IRAK-1-4 Inhibitor I -0.547 | ibrutinib -0.124 | ralimetinib 0.079 | [3] -0.039 | [4] 0.06 | pinometostat 0.048 | [5] -0.465 | [7] 0.117 | [9] -0.076 | givinostat 0.117 | barasertib -0.058

PACRGL (UniProt Q8N7B6)
inactive: [6] 0.01

PCSK7 (UniProt Q16549)
inactive: [3] 0.036 | [8] 0.202 | [10] 0.187 | givinostat -0.052

PAF1 (UniProt Q8N7H5)
inactive: ralimetinib 0.096 | [2] -0.068 | [4] 0.217 | [7] 0 | Nexturastat A 0.081 | [11] 0.204

PCNX3 (UniProt Q9H6A9)
inactive: [3] -0.044 | [8] 0.04 | [10] -0.36 | givinostat 0.066

PALM (UniProt O75781)
inactive: IRAK-1-4 Inhibitor I -0.005 | [3] 0.038 | pinometostat -0.036 | [9] -0.001 | vemurafenib -0.063 | [11] 0.024 | givinostat -0.051

Next part

PAGE4 (UniProt O60829)
inactive: ibrutinib 0.28 | [1] 0.084 | ralimetinib 0.06 | [2] -0.043 | [3] 0.129 | [4] -0.014 | [12] 0.07 | [5] -0.027 | [6] 0.165 | [7] 0.108 | Nexturastat A -0.066 | vemurafenib -0.022 | [11] -0.328 | givinostat -0.047 | barasertib 0.177

PANK3 (UniProt Q9H999)
inactive: ibrutinib 0.028 | [1] 0.015 | ralimetinib -0.015 | [2] -0.012 | [3] -0.013 | [4] 0.084 | [12] -0.111 | [5] -0.029 | [6] 0.048 | [7] 0.072 | [8] 0.04 | Nexturastat A -0.063 | [10] 0.138 | givinostat -0.025 | barasertib 0.028

PDXP (UniProt B1AHD3)
inactive: [2] -0.219 | Nexturastat A -0.268 | vemurafenib -0.1

PCSK6 isoform 7 (UniProt P29122)
inactive: ibrutinib -0.165 | [1] -0.085 | [12] 0.099 | [6] -0.314 | [8] -0.114 | vemurafenib -0.088 | [10] -0.1 | [11] -0.25 | barasertib 0.066

PCNX1 (UniProt Q96RV3)
inactive: ibrutinib 0.008 | [2] 0.005 | [5] 0.143 | [8] -0.373 | Nexturastat A 0.106 | vemurafenib 0.025 | [11] -0.035 | barasertib 0.026
active: [10] -0.58

PDIA4, A0A499FI48
inactive: IRAK-1-4 Inhibitor I -0.093 | [1] 0.064 | ralimetinib 0.106 | [4] 0.03 | pinometostat 0.033 | [5] -0.044 | [7] -0.013 | [8] -0.283 | [9] -0.059 | vemurafenib -0.013 | [10] -0.062 | [11] 0.025

PCYT2 (UniProt I3L1F9)
inactive: [8] -0.28 | [10] -0.132

PCBP2 (UniProt F8VZX2)
inactive: IRAK-1-4 Inhibitor I -0.177 | ibrutinib 0.212 | ralimetinib -0.004 | [3] -0.127 | [4] 0.138 | pinometostat 0.136 | [7] -0.14 | [9] 0.005 | [11] -0.098 | givinostat 0.009 | barasertib -0.173

PEMT isoform 2 (UniProt Q9UBM1)
inactive: [3] -0.22 | [5] 0.025 | givinostat -0.141

PDP1 isoform 2 (UniProt Q9P0J1)
inactive: IRAK-1-4 Inhibitor I -0.226 | ibrutinib 0.158 | pinometostat -0.197 | [6] -0.144 | [8] 0.047 | [9] 0.183 | [10] -0.02 | barasertib 0.248

PCMTD2 (UniProt Q9NV79)
inactive: ralimetinib 0.028 | [4] 0.09 | [12] 0.17 | [5] 0.115 | [7] 0.11 | [11] 0.197

PACS2 isoform 2 (UniProt Q86VP3)
inactive: [6] -0.356
